# Entries after “also recorded” stand apart in the source; their conditions may differ. Part of at least one peptide drawing is inferred or uncertain, most often the ends.
# Assays:
# orthotopic 22Rv1 tumors [1] = assay: TUNEL staining of tumor sections after DOX-liposome treatment; format: in vivo, mice; settings: 1 mg DOX/kg + iRGD daily, 17 days
# [2] = system: orthotopic 22Rv1 human prostate tumors; assay: iRGD-combo system: accumulation of co-injected molecules and nanoparticles in tumors; format: in vivo, mice
# [3] = system: orthotopic 22Rv1 human prostate tumors; assay: Accumulation of DOX-liposomes in tumors with co-injected iRGD; format: in vivo, mice; settings: DOX-liposomes followed by iRGD, tissues collected 3 hours later
# orthotopic 22Rv1 tumors [4] = assay: 22Rv1 xenograft treatment with DOX-liposomes; format: in vivo, mice
# Procedure: (FIGS. 14A and 14B) Nude mice bearing orthotopic 22Rv1 human prostate tumors were intravenously injected with DOX-liposomes (3 mg DOX/kg) followed 5 min later by 100 nmol iRGD or PBS. Tumors and tissues were collected 3 hours later. In (FIG. 14A), the tumors were sectioned and stained with an anti-CD31 antibody. The doxorubicin is represented by the light specs that look like four halos in the left panel. Scale bars=200 μm, n=3. In (FIG. 14B), DOX in the tissues was quantified. […] The tumors were harvested and weighed after 17 days of treatment. The number of mice in each group was 5. One of 3 experiments that gave similar results is shown. (FIG. 14D) TUNEL staining was performed immunohistochemically on tissue sections of the tumor and heart samples from the treatment study, and quantified for positivity. Statistical analyses were performed with Student's r-test in (FIG. 14B), and ANOVA in (FIG. 14C) and (FIG. 14D); error bars, s.e.m.; n.s., not significant; single asterisk, p<0.05; double asterisk, p<0.01; triple asterisk, p<0.001.
# Nude mice bearing 2 week-old orthotopic 22Rv1 tumors received daily intravenous injections of DOX-liposomes ([…]) or PBS, combined with 2 μmol/kg iRGD or PBS. The tumors were harvested and weighed after 17 days of treatment. The number of animals in each group was 13. Statistical analysis was performed with Student's t-test; error bars, s.e.m.; single asterisk, p<0.05; double asterisk, p<0.01.
# Tumors collected after the treatment studies in FIG. 14C were fixed and sectioned. The sections of the tumors from FIG. 14C were immunofluorescently stained with an anti-CD31 antibody. The gray specs seen all over in the left panel represent Dox staining. […] Representative images from each of 5 tumors are shown. Scale bars=200 μm.
# [5] = system: orthotopic BT474 human breast tumors; assay: Accumulation of Herceptin in tumors with co-injected iRGD; format: in vivo, mice; settings: Herceptin 3 mg/kg, 3 hours
# tumors = assay: MRI of tumor mice injected with Feridex with or without iRGD; format: in vivo; settings: vs Feridex alone
# [6] = system: BT474 human breast, 22Rv1 human prostate, disseminated GFP-PC-3 prostate tumors, de novo pancreatic ductal adenocarcinoma; assay: In vivo systemic permeability assay with Evans Blue, other tumor models; set-up: species or system mice; settings: BT474, 22Rv1, GFP-PC-3 disseminated tumors, de novo PDAC
# [7] = system: orthotopic MIA PaCa-2 human pancreatic carcinoma xenografts; assay: In vivo systemic permeability assay with Evans Blue, pancreatic tumor xenografts; set-up: species or system mice; settings: co-injected with Evans Blue; orthotopic MIA PaCa-2 xenografts (FIG. 9B)
# Procedure: FIGS. 5A and 5B show tumor-specific entry of Evans Blue (albumin) into extravascular tumor tissue in iRGD-injected mice. iRGD is SEQ ID NO:3. iRGDD is SEQ ID NO:4. Mice bearing orthotopically transplanted pancreatic or breast cancer xenografts were injected with […] of Evans Blue, followed 5 min later by 100 μg of iRGD peptide in PBS, PBS alone, or a control peptide. Tumors and tissues were collected 30 min. later and examined for dye content. […] About 4 times more dye accumulated in the iRGD-treated tumors than in control tumors. The control peptides included non-CendR RGD peptides.
# FIGS. 9A-9D show a tumor-specific entry of Evans Blue into extravascular tumor tissue in iRGD-injected mice. iRGD is SEQ ID NO:3. iRGDD is SEQ ID NO:4. […] (FIGS. 9B to 9D) Quantification of Evans Blue in the pancreatic tumors and tissues. […]
# Five min later, the mice received an intravenous injection with 100 μl of PBS with or without iRGD or control peptides at various concentrations. […] For Evans Blue quantification, the dye was extracted from tissues using N,N-dimethylformamide for 24 hours at 37° C. and the dye content was quantified by measuring the absorbance at 600 nm with a spectrophotometer. […] Quantification of the positive area in immunohistochemically stained sections, and total amount of antibodies within the tissues are described elsewhere in this manuscript.
# [8] = system: orthotopic BT474 human breast tumors; assay: BT474 xenograft treatment with Herceptin; format: in vivo, mice; settings: for suppression of tumor growth by Herceptin plus iRGD (FIG. 7): weekly Herceptin 3 mg/kg then 1.5 mg/kg + daily 4 mg/kg iRGD
# [9] = tumors collected after the treatment study, vs drug alone at same or higher doses
smiles,measurement,setting,value
N=C(N)NCCC[C@@H]1NC(=O)[C@@H](N)CSSC[C@@H](C(=O)O)NC(=O)[C@H](CC(=O)O)NC(=O)[C@@H]2CCCN2C(=O)CNC(=O)[C@H](CCCCN)NC(=O)[C@H](CC(=O)O)NC(=O)CNC1=O [iRGD],"TUNEL staining of tumors, combo group",orthotopic 22Rv1 tumors [1],strong TUNEL staining at a level comparable to the 3 mg DOX/kg group
same,"area of spreading of dextrans within the tumor, with iRGD vs without","[2]; 3-kDa and 10-kDa dextran, histology sections (FIG. 13B)",3 to 5 fold
same,"area of spreading of FAM-CRGDC within the tumor, with iRGD vs without","[2]; histology sections, anti-FITC staining (FIG. 13B)",3 to 5 fold
same,spreading and accumulation of DOX-liposomes in tumor tissue with iRGD vs without,[3],spread much wider and accumulated more in the tumor tissue
same,anti-tumor effect of DOX-liposomes 1 mg DOX/kg combined with peptide,"orthotopic 22Rv1 tumors [4]; daily i.v. 1 mg DOX/kg + 2 μmol/kg peptide, 17 days, tumor weight",as potent as the DOX-liposomes given alone at a dose 3-times higher
same,anti-tumor effect of DOX-liposomes 3 mg DOX/kg combined with iRGD,"orthotopic 22Rv1 tumors [4]; daily i.v. 3 mg DOX/kg + 2 μmol/kg iRGD, 17 days (FIG. 15)",further improved the efficacy of the drug
same,effect of peptide alone on tumor growth,"orthotopic 22Rv1 tumors [4]; iRGD alone at the dose used for the combo regimen (2 μmol/kg daily), 22Rv1",no effect on the tumor growth
same,distribution of DOX within tumors after treatment with the iRGD-combo regimen,orthotopic 22Rv1 tumors [4]; [9],strikingly wide distribution of the drugs within the tumors; also recorded: wide spreading of DOX
same,spreading of Herceptin within tumor tissue when injected with iRGD,"[5]; 100 nmol iRGD 5 min later, anti-human IgG staining",spread much more efficiently within the tumor tissue than the control injection
same,enhancement of accumulation of Herceptin in the tumors,"[5]; 100 nmol iRGD, competitive ELISA",40 fold
same,MRI contrast in tumors of Feridex combined with iRGD,tumors,stronger MRI contrast in the tumors than Feridex alone
same,Evans Blue accumulation in other tumor models,[6],also observed in other tumor types; also recorded: tumor-specific accumulation of the dye
same,increase in tumor accumulation of Evans Blue,[7],about 4 fold
same,tumor relapse after treatment with 3-fold higher dose of Herceptin plus iRGD,[8]; 2-week observation period without treatment,did not relapse without any treatment during a 2-week observation period
same,anti-tumor effect of Herceptin combined with iRGD,[8]; Herceptin 3 mg/kg then 1.5 mg/kg every 4 days for 24 days + daily iRGD 4 or 2 μmol/kg,greatly increased the potency of the drug; also recorded: significantly more effective than treatment with the same or 3-fold higher dose of Herceptin alone
same,anti-tumor effect of 3-fold higher dose of Herceptin combined with iRGD,[8]; Herceptin 9 mg/kg then 4.5 mg/kg every 4 days + daily iRGD,eradication of all tumors
same,effect of peptide alone on tumor growth,"[8]; iRGD alone at the dose used in the combo regimen, BT474",did not affect the tumor growth
same,distribution of herceptin within tumors after treatment with the combo regimen,[8]; [9],wide distribution of herceptin within the tumors
same,suppression of tumor growth by Herceptin plus iRGD (FIG. 7),[8]; BT474,significantly more effective in suppressing tumor growth than an equivalent dose of Herceptin alone
same,suppression of tumor growth by Herceptin plus iRGD (FIG. 7),"[8]; BT474, listed as iRGD peptide",enhanced anti-tumor effect

# Source: US11059718B2, “Methods and compositions using peptides and proteins with C-terminal elements” (Sanford Burnham Prebys Medical Discovery Institute, priority 2009, dated 2021)
